Test results taken from patent US20190322762A1.
Substitutions are numbered along the chain they refer to. These are yes or no findings as the source states them, for the method shown. Some binding calls cover weakened binding; strength is not graded here. Values belong to the binder of their own block, whether it stands above or below them.

The chains behind the UniProt entries cited, without tags or fusion partners. Where a name states a change or a piece, a line headed by the entry shows the natural chain unless it says otherwise. A line that says so, or that is headed by a name, gives the form on record, which may keep a tag or linker.
UniProt P06733: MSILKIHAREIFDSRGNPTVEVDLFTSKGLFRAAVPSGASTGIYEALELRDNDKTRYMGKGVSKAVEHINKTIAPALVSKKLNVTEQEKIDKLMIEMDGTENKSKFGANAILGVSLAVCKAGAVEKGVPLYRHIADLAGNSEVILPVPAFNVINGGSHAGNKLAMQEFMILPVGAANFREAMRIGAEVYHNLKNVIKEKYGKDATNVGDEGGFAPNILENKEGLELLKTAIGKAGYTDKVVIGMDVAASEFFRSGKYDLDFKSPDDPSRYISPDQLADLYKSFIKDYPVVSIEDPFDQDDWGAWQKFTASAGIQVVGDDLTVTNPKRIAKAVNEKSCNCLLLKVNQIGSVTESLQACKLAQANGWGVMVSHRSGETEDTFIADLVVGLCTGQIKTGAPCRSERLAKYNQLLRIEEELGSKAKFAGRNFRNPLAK
ENO1 mutant Q298 to alanine (P06733, form named): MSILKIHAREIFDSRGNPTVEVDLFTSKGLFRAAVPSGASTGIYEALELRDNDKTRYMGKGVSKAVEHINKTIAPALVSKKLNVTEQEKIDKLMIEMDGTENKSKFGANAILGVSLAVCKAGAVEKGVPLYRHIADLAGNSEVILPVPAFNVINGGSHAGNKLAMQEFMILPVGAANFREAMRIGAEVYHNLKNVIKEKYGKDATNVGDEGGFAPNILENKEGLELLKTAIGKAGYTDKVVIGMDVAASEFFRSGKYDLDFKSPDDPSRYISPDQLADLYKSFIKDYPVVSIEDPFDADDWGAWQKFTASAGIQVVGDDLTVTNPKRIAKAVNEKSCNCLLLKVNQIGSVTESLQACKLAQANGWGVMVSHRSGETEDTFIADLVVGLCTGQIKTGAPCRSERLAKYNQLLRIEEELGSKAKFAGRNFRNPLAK
ENO1 mutant D299 to alanine (P06733, form named): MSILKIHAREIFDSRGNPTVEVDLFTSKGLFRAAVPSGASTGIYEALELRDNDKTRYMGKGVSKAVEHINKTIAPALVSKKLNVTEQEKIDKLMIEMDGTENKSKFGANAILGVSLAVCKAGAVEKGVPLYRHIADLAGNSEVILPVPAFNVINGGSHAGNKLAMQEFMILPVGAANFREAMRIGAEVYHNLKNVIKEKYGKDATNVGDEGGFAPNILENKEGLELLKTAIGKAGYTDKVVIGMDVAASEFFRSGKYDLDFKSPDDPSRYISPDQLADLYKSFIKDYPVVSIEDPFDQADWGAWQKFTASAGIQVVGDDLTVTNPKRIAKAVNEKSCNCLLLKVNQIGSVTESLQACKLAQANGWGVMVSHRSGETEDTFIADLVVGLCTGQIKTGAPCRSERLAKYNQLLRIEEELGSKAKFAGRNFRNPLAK
ENO1 mutant S310 to alanine (P06733, form named): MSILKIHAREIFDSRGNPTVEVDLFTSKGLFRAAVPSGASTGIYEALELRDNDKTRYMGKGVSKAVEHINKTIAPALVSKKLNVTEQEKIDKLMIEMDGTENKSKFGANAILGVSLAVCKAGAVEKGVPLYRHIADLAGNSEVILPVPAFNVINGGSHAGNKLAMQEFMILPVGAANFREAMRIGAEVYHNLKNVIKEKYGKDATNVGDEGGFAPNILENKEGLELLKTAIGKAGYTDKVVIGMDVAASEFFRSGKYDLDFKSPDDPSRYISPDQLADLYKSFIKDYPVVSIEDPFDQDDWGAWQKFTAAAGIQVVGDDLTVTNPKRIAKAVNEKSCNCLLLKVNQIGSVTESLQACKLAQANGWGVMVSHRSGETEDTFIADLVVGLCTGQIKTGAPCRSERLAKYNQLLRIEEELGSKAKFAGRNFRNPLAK
ENO1 mutant G312 to alanine (P06733, form named): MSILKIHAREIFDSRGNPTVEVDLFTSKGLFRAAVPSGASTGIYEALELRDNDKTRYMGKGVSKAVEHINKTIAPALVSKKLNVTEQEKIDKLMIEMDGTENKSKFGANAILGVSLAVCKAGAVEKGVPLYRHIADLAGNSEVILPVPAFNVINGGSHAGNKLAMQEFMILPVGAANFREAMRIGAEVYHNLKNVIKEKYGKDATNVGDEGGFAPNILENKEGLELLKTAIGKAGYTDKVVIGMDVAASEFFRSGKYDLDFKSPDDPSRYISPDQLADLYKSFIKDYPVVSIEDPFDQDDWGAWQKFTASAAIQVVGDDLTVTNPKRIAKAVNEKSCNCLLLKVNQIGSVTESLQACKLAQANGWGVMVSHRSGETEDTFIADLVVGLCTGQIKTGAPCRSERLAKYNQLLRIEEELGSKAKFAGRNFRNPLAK

Tests used:
[1] = target: ENO1 mutant Q298 to alanine (human) (UniProt P06733); experiment: ELISA, ENO1 mutant A298 coated, EN10.5 mAb titrated
[2] = target: ENO1 mutant D299 to alanine (human) (UniProt P06733); experiment: ELISA, ENO1 mutant A299 coated, EN10.5 mAb titrated
[3] = target: ENO1 mutant S310 to alanine (human) (UniProt P06733); experiment: ELISA, ENO1 mutant A310 coated, EN10.5 mAb titrated
[4] = target: ENO1 mutant G312 to alanine (human) (UniProt P06733); experiment: ELISA, ENO1 mutant A312 coated, EN10.5 mAb titrated
[5] = target: human ENO1 protein (human) (UniProt P06733); experiment: ELISA, human ENO1 coated on the plate, antibody titrated
[6] = target: ENO1 mutant D299 to alanine (human) (UniProt P06733); experiment: ELISA, mutant protein coated, antibody in 2-fold dilutions, OD450
[7] = target: ENO1 mutant G312 to alanine (human) (UniProt P06733); experiment: as above
[8] = target: ENO1 mutant Q298 to alanine (human) (UniProt P06733); experiment: as above
[9] = target: ENO1 mutant S310 to alanine (human) (UniProt P06733); experiment: as above
[10] = target: human ENO1 protein (human) (UniProt P06733); experiment: SPR, BIAcore 2000
[11] = target: human ENO1 protein (human) (UniProt P06733); experiment: SPR (BIAcore), antibody on the chip, two-fold dilutions of ENO1 injected (0.3125 nM to 40 nM per paragraph 183)

binding [1]: binds | binding [2]: binds | binding [3]: binds | binding [4]: binds | binding [5]: binds | binding [6]: binds | binding [7]: binds | binding [8]: binds | binding [9]: binds
B1: EN10.5 (antibody, V domains shown)
VH: QVQLVQSGAEVKKPGASVKVSCKASGYTFTSSVMNWVRQAPGQGLEWMGYINPYNDGTKYNEKFKGRVTMTTDTSTSTAYMELRSLRSDDTAVYYCAREGFYYGNFDNWGQGTLVTVSS
VL: DIQMTQSPSSLSASVGDRVTITCRASENIYSYLTWYQQKPGKAPKLLIYNAKTLPEGVPSRFSGSGSGTDFTLTISSLQPEDFATYYCQHHYGTPYTFGQGTKLEIKR

binding [10]: binds | binding [5]: binds | binding [11]: binds
B2: hum EN10 mAb IMGT (antibody, V domains shown)
VH: B1 VH with S32C
VL: B1 VL

binding [5]: binds
B3: EN10.4 (antibody, V domains shown)
VH: B1 VH with S32A
VL: B1 VL
